# The supplement of paper PMC4604168 (melanoma cell lines)
# The list shows a part of the results. Single values are uncertain, as repeats are few or missing.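 The apoptosis fraction was the count of cleaved-PARP antibody-stained nuclei relative to all DNA-stained nuclei, imaged in 1,536-well plates. Screening doses were set so most cells survived, and baseline and induced cleaved-PARP levels vary greatly across cell lines.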
# Columns and labels:
# Test in all cases: cleaved PARP positive nuclei fraction relative to DMSO control; melanoma cells; higher = more apoptosis
# Settings in all cases: library dose: low library concentration; 72 h
# 501Mel = test system: 501Mel
# A101D = test system: A101D
# A2058 = test system: A2058
# A375 = test system: A375
# C32 = test system: C32
# CBRC013 = test system: CBRC013 (line from a melanoma biopsy)
# CBRC014 = test system: CBRC014 (line from a melanoma biopsy)
# CBRC016 = test system: CBRC016 (line from a melanoma biopsy)
# CBRC017 = test system: CBRC017 (line from a melanoma biopsy)
# CBRC034 = test system: CBRC034 (line from a melanoma biopsy)
# COLO792 = test system: COLO792
# COLO800 = test system: COLO800
# COLO829 = test system: COLO829
# G361 = test system: G361
# IPC-298 = test system: IPC-298
# IST-MEL1 = test system: IST-MEL1
# LB2518-MEL = test system: LB2518-MEL
# LOXIMVI = test system: LOXIMVI
Compound,cleaved PARP positive nuclei fraction (501Mel) [%],cleaved PARP positive nuclei fraction (A101D) [%],cleaved PARP positive nuclei fraction (A2058) [%],cleaved PARP positive nuclei fraction (A375) [%],cleaved PARP positive nuclei fraction (C32) [%],cleaved PARP positive nuclei fraction (CBRC013) [%],cleaved PARP positive nuclei fraction (CBRC014) [%],cleaved PARP positive nuclei fraction (CBRC016) [%],cleaved PARP positive nuclei fraction (CBRC017) [%],cleaved PARP positive nuclei fraction (CBRC034) [%],cleaved PARP positive nuclei fraction (COLO792) [%],cleaved PARP positive nuclei fraction (COLO800) [%],cleaved PARP positive nuclei fraction (COLO829) [%],cleaved PARP positive nuclei fraction (G361) [%],cleaved PARP positive nuclei fraction (IPC-298) [%],cleaved PARP positive nuclei fraction (IST-MEL1) [%],cleaved PARP positive nuclei fraction (LB2518-MEL) [%],cleaved PARP positive nuclei fraction (LOXIMVI) [%]
"Cc1ccc(NC(=O)c2cccc(N(C)C)c2)cc1NC(=O)c1ccc(O)cc1 + O=C(O)C(=O)Nc1sc2c(c1C(=O)O)CCNC2 [TCS401] (first compound 2 µM, partner dose 1.66667 µM)",184,253,54.9,53.5,37,125,86.3,140,79.6,390,68.3,46.2,230,30.3,52.2,129,82.5,58.3
"C[C@@H]1CCN(C(=O)CC#N)C[C@@H]1N(C)c1ncnc2[nH]ccc12 + COc1cc2ncnc(Nc3ccc(Oc4ccccc4)cc3)c2cc1OC [SrcI1] (first compound 1 µM, partner dose 2 µM)",32.7,195,134,79.8,65.2,66,113,99,101,42.2,93.4,79.3,73.8,47.9,84,33.6,78.9,76.2
"CC(C)(C)c1cnc(CSc2cnc(NC(=O)C3CCNCC3)s2)o1 + Cn1cc(/C=C2\C(=O)Nc3cccnc32)c2ccccc21 [GW441756] (first compound 0.01 µM, partner dose 0.4 µM)",27,162,69.4,93.6,115,94.7,95.4,52.6,61.3,44.7,112,65.1,115,160,79,176,80.5,144
"CO[C@@H]1[C@H](N(C)C(=O)c2ccccc2)C[C@H]2O[C@]1(C)n1c3ccccc3c3c4c(c5c6ccccc6n2c5c31)C(=O)NC4 [Midostaurin] + COc1cc2ncnc(Nc3ccc(Oc4ccccc4)cc3)c2cc1OC [SrcI1] (first compound 0.08 µM, partner dose 2 µM)",97.9,251,155,110,68.7,79.2,110,67,103,92.4,135,144,118,127,49.6,62.8,71.1,67.6
"C[C@]1(c2nc3c(C(N)=O)cccc3[nH]2)CCCN1 [Veliparib] + COc1ccc(-c2ccc3c(N4CCOCC4)nc(N4C[C@@H](C)O[C@@H](C)C4)nc3n2)cc1CO [KU0063794] (first compound 1.4 µM, partner dose 0.02 µM)",99.1,564,110,80.8,55.5,124,87.4,48,155,91.4,89.9,83.4,76.3,226,27.8,83.8,97.1,91.6
"C=CCn1c(=O)c2cnc(Nc3ccc(N4CCN(C)CC4)cc3)nc2n1-c1cccc(C(C)(C)O)n1 + O=C(O)C(=O)Nc1sc2c(c1C(=O)O)CCNC2 [TCS401] (first compound 0.02 µM, partner dose 1.66667 µM)",83.5,95.6,224,682,32.6,92.1,106,19,93.1,82,125,255,65.5,93.4,165,57.8,97.3,60.4
"CC1(C)NC(=O)N(c2ccc([N+](=O)[O-])c(C(F)(F)F)c2)C1=O [nilutamide] + Oc1cc(-c2nc(-c3ccccc3)[nH]c2-c2ccncc2)ccc1Cl [L779450] (first compound 1 µM, partner dose 0.2 µM)",229,107,86.2,98.2,226,210,102,98,79.7,73.3,114,147,151,109,142,60,105,58.8
"Cc1cc(N2CCOCC2)cc2[nH]c(-c3c(NC[C@@H](O)c4cccc(Cl)c4)cc[nH]c3=O)nc12 + CCCCCCCCCCCC1=C(O)C(=O)C=C(O)C1=O [Embelin] (first compound 0.2 µM, partner dose 1.2 µM)",86.2,165,50.6,82.9,106,273,85.9,127,83.4,91.5,68.3,288,129,106,86.4,27.6,39.1,76.7
"NC(=O)Nc1cc(-c2cccc(F)c2)sc1C(=O)N[C@H]1CCCNC1 + COc1ccc(-c2ccc3c(N4CCOCC4)nc(N4C[C@@H](C)O[C@@H](C)C4)nc3n2)cc1CO [KU0063794] (first compound 0.02 µM, partner dose 0.02 µM)",79,222,116,689,91.2,88.4,234,26.9,94.1,42,145,85,111,58.6,45.3,41.1,72.8,66.5

# Whole records from above. Values in the order: cleaved PARP positive nuclei fraction (501Mel) [%] | cleaved PARP positive nuclei fraction (A101D) [%] | cleaved PARP positive nuclei fraction (A2058) [%] | cleaved PARP positive nuclei fraction (A375) [%] | cleaved PARP positive nuclei fraction (C32) [%] | cleaved PARP positive nuclei fraction (CBRC013) [%] | cleaved PARP positive nuclei fraction (CBRC014) [%] | cleaved PARP positive nuclei fraction (CBRC016) [%] | cleaved PARP positive nuclei fraction (CBRC017) [%] | cleaved PARP positive nuclei fraction (CBRC034) [%] | cleaved PARP positive nuclei fraction (COLO792) [%] | cleaved PARP positive nuclei fraction (COLO800) [%] | cleaved PARP positive nuclei fraction (COLO829) [%] | cleaved PARP positive nuclei fraction (G361) [%] | cleaved PARP positive nuclei fraction (IPC-298) [%] | cleaved PARP positive nuclei fraction (IST-MEL1) [%] | cleaved PARP positive nuclei fraction (LB2518-MEL) [%] | cleaved PARP positive nuclei fraction (LOXIMVI) [%]
# CO[C@@H]1[C@H](N(C)C(=O)c2ccccc2)C[C@H]2O[C@]1(C)n1c3ccccc3c3c4c(c5c6ccccc6n2c5c31)C(=O)NC4 [Midostaurin] + COc1cc2ncnc(Nc3ccc(Oc4ccccc4)cc3)c2cc1OC [SrcI1] (first compound 0.08 µM, partner dose 2 µM) reads 97.9 | 251 | 155 | 110 | 68.7 | 79.2 | 110 | 67 | 103 | 92.4 | 135 | 144 | 118 | 127 | 49.6 | 62.8 | 71.1 | 67.6
# Cc1cc(N2CCOCC2)cc2[nH]c(-c3c(NC[C@@H](O)c4cccc(Cl)c4)cc[nH]c3=O)nc12 + CCCCCCCCCCCC1=C(O)C(=O)C=C(O)C1=O [Embelin] (first compound 0.2 µM, partner dose 1.2 µM) reads 86.2 | 165 | 50.6 | 82.9 | 106 | 273 | 85.9 | 127 | 83.4 | 91.5 | 68.3 | 288 | 129 | 106 | 86.4 | 27.6 | 39.1 | 76.7
